Data as given in PubChem BioAssay AID1259405 (NCATS, 2018).
The deposit covers about 50,000 reagents; shown is a part drawn at random. Of all reagents, about 4,000 (8%) got an active call. 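Mouse siRNA library applied to hamster cells; one well for each siRNA.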 A number with no mark means an inactive call.

- Purpose: 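Silenced genes that increase secreted GFP made by CHO cells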 (primary screen)
- Cell system: Chinese hamster CHO-K1 ovary cells with stable secreted eGFP expression
- Knock-down reagent: single siRNA against mouse genes, 0.8 pmol siRNA per well (2 µl of 400 nM stock)
- Duration: 3 days
- Read-out: 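Per-well intracellular GFP measured by laser scanning cytometry, plus viability from ATP luminescence, each relative to plate median of non-targeting control wells, in %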
- Reading the numbers: GFP, % of control: higher = more GFP per well, higher productivity; viability (ATP), % of control: higher = more viable cells (more ATP)
- Hit rule: 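Called active when intracellular GFP, relative to negative control, is at or above 120%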

target | PubChem SID | GFP, % of control | viability (ATP), % of control
Gprc5b (G protein-coupled receptor, family C, group 5, member B) | SID363571318 | 50 | 59.2
Gprc5b (G protein-coupled receptor, family C, group 5, member B) | SID363571670 | 72.3 | 74.8
Gprc5b (G protein-coupled receptor, family C, group 5, member B) | SID363572022 | 60.5 | 78.2
Zfp457 (zinc finger protein 457) | SID363540975 | 54 | 57.9
Zfp457 (zinc finger protein 457) | SID363555602 | 65.7 | 81.4
Zfp457 (zinc finger protein 457) | SID363565891 | 98.3 | 72.5
Plekha2 (pleckstrin homology domain containing A2) | SID363554701 | 58.5 | 60
Plekha2 (pleckstrin homology domain containing A2) | SID363568148 | 75.6 | 75.9
Plekha2 (pleckstrin homology domain containing A2) | SID363586207 | 65.3 | 64.9
Adcyap1 (adenylate cyclase activating polypeptide 1) | SID363572152 | 135 (active) | 42.2
Adcyap1 (adenylate cyclase activating polypeptide 1) | SID363573912 | 70 | 76
Atp2b4 (ATPase, Ca++ transporting, plasma membrane 4) | SID363545479 | 39.9 | 43.3
Atp2b4 (ATPase, Ca++ transporting, plasma membrane 4) | SID363548992 | 55.4 | 87.6
Atp2b4 (ATPase, Ca++ transporting, plasma membrane 4) | SID363562798 | 41.9 | 52.5
Orc6 (origin recognition complex, subunit 6) | SID363569734 | 102 | 80.2
Orc6 (origin recognition complex, subunit 6) | SID363576774 | 62.2 | 65
Orc6 (origin recognition complex, subunit 6) | SID363578182 | 74.9 | 71.1
Or7d9 (olfactory receptor family 7 subfamily D member 9) | SID363554254 | 42 | 43.1
Or7d9 (olfactory receptor family 7 subfamily D member 9) | SID363567701 | 64.2 | 52.5
Or7d9 (olfactory receptor family 7 subfamily D member 9) | SID363585058 | 38.3 | 91.7
Nectin3 (nectin cell adhesion molecule 3) | SID363544966 | 108 | 110
Nectin3 (nectin cell adhesion molecule 3) | SID363551294 | 89.1 | 81.2
Nectin3 (nectin cell adhesion molecule 3) | SID363557843 | 78.8 | 112
Ntrk3 (neurotrophic tyrosine kinase, receptor, type 3) | SID363544569 | 27.5 | 26.9
Ntrk3 (neurotrophic tyrosine kinase, receptor, type 3) | SID363550897 | 82.6 | 50.3
Ntrk3 (neurotrophic tyrosine kinase, receptor, type 3) | SID363557446 | 109 | 72.4
Fcgr4 (Fc receptor, IgG, low affinity IV) | SID363568905 | 125 (active) | 104
Fcgr4 (Fc receptor, IgG, low affinity IV) | SID363576297 | 45.2 | 50.4
Fcgr4 (Fc receptor, IgG, low affinity IV) | SID363579113 | 41.9 | 55.7
Or9g10 (olfactory receptor family 9 subfamily G member 10) | SID363544649 | 83.5 | 83.7
Or9g10 (olfactory receptor family 9 subfamily G member 10) | SID363550977 | 51.1 | 75.7
Or9g10 (olfactory receptor family 9 subfamily G member 10) | SID363557526 | 84.3 | 76.2
BC043934 (cDNA sequence BC043934) | SID363546986 | 53.6 | 57.7
BC043934 (cDNA sequence BC043934) | SID363549798 | 90.5 | 83.7
BC043934 (cDNA sequence BC043934) | SID363587852 | 176 (active) | 131
Efemp2 | SID363582553 | 98.1 | 122
Efemp2 | SID363584313 | 55.8 | 95.8
Trim30b (tripartite motif-containing 30B) | SID363542813 | 78.7 | 70.7
Trim30b (tripartite motif-containing 30B) | SID363546330 | 48.2 | 31
Trim30b (tripartite motif-containing 30B) | SID363548086 | 95.7 | 90.2
Or51g2 (olfactory receptor family 51 subfamily G member 2) | SID363554345 | 89.5 | 82.8
Or51g2 (olfactory receptor family 51 subfamily G member 2) | SID363567792 | 86.8 | 82.3
Or51g2 (olfactory receptor family 51 subfamily G member 2) | SID363585149 | 66.7 | 89.5
Popdc3 (popeye domain containing 3) | SID363554552 | 68.2 | 71.9
Popdc3 (popeye domain containing 3) | SID363567999 | 97.9 | 89.6
Popdc3 (popeye domain containing 3) | SID363586058 | 91.2 | 103
Dmwd (dystrophia myotonica-containing WD repeat motif) | SID363539511 | 75.1 | 83.2
Dmwd (dystrophia myotonica-containing WD repeat motif) | SID363560812 | 63.3 | 74.7
Dmwd (dystrophia myotonica-containing WD repeat motif) | SID363564902 | 77.8 | 79.7
Ube2n (ubiquitin-conjugating enzyme E2N) | SID363572803 | 127 (active) | 98.8
Ube2n (ubiquitin-conjugating enzyme E2N) | SID363578083 | 82.5 | 85.9
Ube2n (ubiquitin-conjugating enzyme E2N) | SID363582307 | 91.9 | 107
Smarcc1 (SWI/SNF related BAF chromatin remodeling complex subunit C1) | SID363569271 | 58.3 | 75.7
Smarcc1 (SWI/SNF related BAF chromatin remodeling complex subunit C1) | SID363583703 | 72.5 | 92.1
Cabp5 (calcium binding protein 5) | SID363582575 | 98.9 | 96.6
Cabp5 (calcium binding protein 5) | SID363584335 | 114 | 105
Mycbp (MYC binding protein) | SID363547461 | 78.8 | 54
Mycbp (MYC binding protein) | SID363558230 | 55.2 | 82.5
Mycbp (MYC binding protein) | SID363559988 | 78.8 | 83.8
Rgcc (regulator of cell cycle) | SID363540764 | 126 (active) | 161
Rgcc (regulator of cell cycle) | SID363543215 | 50.2 | 65.1
Rgcc (regulator of cell cycle) | SID363552708 | 28.6 | 49.6
Cd74 | SID363553842 | 111 | 58.7
Cd74 | SID363561799 | 123 (active) | 82.9
Cd74 | SID363565537 | 145 (active) | 89.8
Vps26c (VPS26 endosomal protein sorting factor C) | SID363553545 | 89.5 | 56.6
Vps26c (VPS26 endosomal protein sorting factor C) | SID363561502 | 83.5 | 69.1
Vps26c (VPS26 endosomal protein sorting factor C) | SID363565240 | 99.8 | 60.6
Mgat4e (MGAT4 family, member E) | SID363545203 | 172 (active) | 100
Mgat4e (MGAT4 family, member E) | SID363548716 | 104 | 76.3
Mgat4e (MGAT4 family, member E) | SID363562522 | 58.8 | 71.3
Flad1 (flavin adenine dinucleotide synthetase 1) | SID363569276 | 84.9 | 170
Flad1 (flavin adenine dinucleotide synthetase 1) | SID363583708 | 81.7 | 86.4
Apoe (apolipoprotein E) | SID363574696 | 96.7 | 61.2
Apoe (apolipoprotein E) | SID363575752 | 59.4 | 72.2
Apoe (apolipoprotein E) | SID363580328 | 61 | 57.2
Avp (arginine vasopressin) | SID363541482 | 65.9 | 82.3
Avp (arginine vasopressin) | SID363556109 | 62.5 | 57.3
Avp (arginine vasopressin) | SID363566398 | 92 | 70.5
Dgcr6 (DiGeorge syndrome critical region gene 6) | SID363539803 | 57.4 | 76.8
Dgcr6 (DiGeorge syndrome critical region gene 6) | SID363561104 | 37.7 | 29.2
Dgcr6 (DiGeorge syndrome critical region gene 6) | SID363565194 | 117 | 96.5
Pdcd11 (programmed cell death 11) | SID363545978 | 125 (active) | 79.8
Pdcd11 (programmed cell death 11) | SID363549491 | 81.8 | 85.8
Pdcd11 (programmed cell death 11) | SID363563297 | 88 | 102

Hits, among the entries above:
target | PubChem SID | GFP, % of control | viability (ATP), % of control
Adcyap1 (adenylate cyclase activating polypeptide 1) | SID363572152 | 135 (active) | 42.2
Fcgr4 (Fc receptor, IgG, low affinity IV) | SID363568905 | 125 (active) | 104
BC043934 (cDNA sequence BC043934) | SID363587852 | 176 (active) | 131
Ube2n (ubiquitin-conjugating enzyme E2N) | SID363572803 | 127 (active) | 98.8
Rgcc (regulator of cell cycle) | SID363540764 | 126 (active) | 161
Cd74 | SID363561799 | 123 (active) | 82.9
Cd74 | SID363565537 | 145 (active) | 89.8
Mgat4e (MGAT4 family, member E) | SID363545203 | 172 (active) | 100
Pdcd11 (programmed cell death 11) | SID363545978 | 125 (active) | 79.8
